The experiment concerns Salmonella enterica serovar Typhimurium SL1344. As to the kind of experiment: bacterial growth OD600 after 18 h with compound and polymyxin B; higher = more bacterial growth (less inhibition). Conditions: 50 µM, Mueller-Hinton broth.

The values below come from the supplement of paper PMC12889115.

The list shows a part of the results. These are raw signals, not scaled to a control.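 Primary screen: polymyxin B was added at a level permeabilizing Salmonella outer membranes while sparing inner membranes. DMSO wells, both with and without polymyxin B, established maximum growth. Plate-to-plate variation meant each plate was ranked on its own, and the lowest-OD600 compounds were selected as hits.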

Turning to `Cc1cc(C)nc(NCc2cccnc2Oc2ccccc2F)n1`, under “polymyxin B 0.75 µg/mL”, the “bacterial growth OD600” value stood at 0.765. Turning to `COc1ccc(CN(C)C2CCCN(CCc3ccccc3)C2)c(OC)c1OC` (stereo not given), where the note is “polymyxin B 1 µg/mL”, the “bacterial growth OD600” value turned out to be 0.931. On to `COc1cccc(CN2CCC(C(Cc3ccc(F)cc3F)N(C)C(=O)c3ccco3)CC2)c1OC` (stereo not given), for which the “bacterial growth OD600” value (polymyxin B 0.75 µg/mL) amounted to 0.806. Consider `CCOC(=O)C1(CCCc2ccccc2)CCCN(C(=O)c2cccnc2C)C1` (stereo not given), for which the “bacterial growth OD600” value (polymyxin B 1 µg/mL) is 1.02. With `CCCN1CCC(NC(=O)c2ccc(OC3CCN(Cc4ccccn4)CC3)cc2)CC1`, under “polymyxin B 1 µg/mL”, the “bacterial growth OD600” value is 1.03. Still for that read-out and setting: under `CCN(Cc1cnc(C)s1)CC1CCCN(CCc2cccc(OC)c2)C1` (stereo not given) stands 0.85. Regarding `COc1cccc(-c2cnc(-c3ccncc3)nc2C2CCN(C(=O)/C=C/c3cccc(F)c3)CC2)c1`, the “bacterial growth OD600” value (polymyxin B 0.75 µg/mL) amounted to 0.074.

On to `OCCC1CN(Cc2cnc(-c3ccccc3)s2)CCN1Cc1ccccc1F` (stereo not given), for which the “bacterial growth OD600” value (polymyxin B 1 µg/mL) came out at 0.779. With `COc1ccc(Cl)cc1NC(=O)CCC1CCCN(C(=O)Cc2nonc2C)C1` (stereo not given), where the note is “polymyxin B 1 µg/mL”, the “bacterial growth OD600” value stood at 1.07. Consider `O=C(c1ccc2c(c1)OCO2)C1CCCN(C(=O)Cn2c(=O)oc3ccccc32)C1` (stereo not given), for which, where the note is “polymyxin B 1 µg/mL”, the “bacterial growth OD600” value was 0.892. The same measure, in the same setting: under `COc1cc(C(=O)NC(C)Cc2ccccn2)ccc1OC1CCN(C(C)=O)CC1` (stereo not given) stands 0.873. In the case of `CCn1cc(CN2CCC(c3ccc(OC)c(C)c3)Sc3cc(OC)ccc32)c(C)n1` (stereo not given), where the note is “polymyxin B 0.75 µg/mL”, the “bacterial growth OD600” value was -0.001. Consider `COc1ccccc1NC(=O)Nc1ccnn1C1CCN(C(=O)c2ccoc2)CC1`, for which the “bacterial growth OD600” value (polymyxin B 0.75 µg/mL) came to 0.832.

Take `CCC1CN(CCC(=O)NCC(c2cccnc2)N2CCOCC2)Cc2cc(OC)ccc2O1` (stereo not given): the “bacterial growth OD600” value (polymyxin B 0.75 µg/mL) was 0.803. As for `COCC(=O)N1CCC(Oc2ccc(C(=O)NCCc3nc(C)cc(C)n3)cc2)CC1`, where the note is “polymyxin B 1 µg/mL”, the “bacterial growth OD600” value was 0.965.

`Cn1ccnc1CN1CCN(Cc2nc(-c3ccccc3)no2)CC1`: where the note is “polymyxin B 0.75 µg/mL”, the “bacterial growth OD600” value came out at 0.934. Same read-out and setting: the value for `COc1ccc(OC)c(C(=O)NCc2cccnc2-n2ccnc2)c1` was 0.865; that for `O=C1N(C2CCCC2)C[C@@H]2C[C@@H](c3cnn(-c4ccccc4)c3)N3CCC[C@@]123` was 0.869; that for `COCCN1C(=O)CC(CC(=O)N2CCCOc3c(cccc3OC)C2)(c2ccccc2OC)C1=O` (stereo not given) was 1.03.

`CCOC(=O)C1(CCCc2ccccc2)CCN(C(=O)C2CC(C(C)C)=NO2)CC1` (stereo not given): for the setting “polymyxin B 1 µg/mL”, the “bacterial growth OD600” value was found to be 0.553. Take `COCC(C)NC(=O)Cc1c2c(n(Cc3ccc(F)cc3)c1C)CCCC2=O` (stereo not given): for the setting “polymyxin B 0.75 µg/mL”, the “bacterial growth OD600” value is 0.93. Regarding `NC(=O)[C@@H]1CCCN1C(=O)c1ccc2nc(C3CCCCC3)oc2c1`, the “bacterial growth OD600” value (polymyxin B 0.75 µg/mL) amounted to 0.792. Still for that read-out and setting: the value for `CSc1ncc(CN2CCC(CCC(=O)N3CCN(c4ccccc4)CC3)CC2)cn1` was 0.788.

As for `C=CCCC(=O)NC1CCCN(CC2CCCCC2)C1` (stereo not given), the “bacterial growth OD600” value (polymyxin B 1 µg/mL) amounted to 1.13. Consider `CCC(COC)NC(=O)CN1Cc2cc(OC)ccc2OC(CC)C1` (stereo not given), for which the “bacterial growth OD600” value (polymyxin B 0.75 µg/mL) amounted to 0.957.

`CC(C)Cc1cc(CN2CCCC(CO)(Cc3cccc(Cl)c3)C2)n[nH]1` (stereo not given): the “bacterial growth OD600” value (polymyxin B 1 µg/mL) was found to be 0.655. As for `O=C(Cc1ccsc1)NCC1Cc2cccc(-c3ncccn3)c2O1` (stereo not given), the “bacterial growth OD600” value (polymyxin B 0.75 µg/mL) amounted to 0.762. Still for that read-out and setting: under `CCn1nc(C)c(CNC2CCN(c3ccc(CC(=O)N4CCC[C@H]4C(=O)OC)cc3)CC2)c1C` stands 0.863. With `Cc1cc(CNCc2nc3ccccc3[nH]2)c2[nH]c(C)c(C)c2c1`, the “bacterial growth OD600” value (polymyxin B 1 µg/mL) came out at 1.03.

With `CCOC(=O)c1n[nH]cc1CN1CCCC(Cc2ccc(F)cc2F)(C(=O)OCC)C1` (stereo not given), the “bacterial growth OD600” value (polymyxin B 1 µg/mL) turned out to be 0.894.
